Test results reported in paper PMC6408822.
Results are given in words; binding and its absence hold for the method and conditions named. In cells and extracts the contact can be indirect. Some binding calls cover weakened binding; strength is not graded here.

Chains of the proteins cited; added tags and fusions are not shown. Residues count along the entry.
UniProt P25445, residues 26-335: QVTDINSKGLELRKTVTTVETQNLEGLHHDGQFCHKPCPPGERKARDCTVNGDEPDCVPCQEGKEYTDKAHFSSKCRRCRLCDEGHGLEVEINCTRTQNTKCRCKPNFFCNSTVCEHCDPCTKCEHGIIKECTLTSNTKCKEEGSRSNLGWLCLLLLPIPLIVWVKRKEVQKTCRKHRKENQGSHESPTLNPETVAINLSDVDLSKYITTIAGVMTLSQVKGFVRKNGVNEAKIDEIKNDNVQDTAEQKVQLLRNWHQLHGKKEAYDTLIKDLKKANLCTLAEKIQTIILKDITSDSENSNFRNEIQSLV

Target: Fas protein (human (endogenous in SW620 and HCT116)) (UniProt P25445)
Assay: co-IP; SW620 and HCT116 cell lysates in IP lysis buffer (2 mM Tris-HCl pH 7.4, 10 mM EDTA, 100 mM NaCl, 1% IGEPAL); immunoprecipitation with antibodies against CRIP1 or Fas on protein A/G beads; western blot with anti-Fas or anti-CRIP1

binding: binds
B1: Cysteine-rich intestinal protein 1 (protein, UniProt P50238 1-77)
chain: MPKCPKCNKEVYFAERVTSLGKDWHRPCLKCEKCGKTLTSGGHAEHEGKPYCNHPCYAAMFGPKGFGRGGAESHTFK
